In PubChem BioAssay AID2417 (National Center for Advancing Translational Sciences (NCATS), 2010):
The whole screen tested about 140,000 compounds, of which about 4,300 (3.1%) were called active. This list was built around the results that the source calls inconclusive (neither active nor inactive); the mix of calls is not that of the screen.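 Rule for the calls: active = readout at or below -70, meaning at least 70% loss of cells showing the perinucleolar compartment, a nuclear body marking cancer cells; inconclusive = readout between -30 and a set limit; inactive = the rest.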

Assay: High Content Assay for Compounds that inhibit the Assembly of the Perinucleolar Compartment;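 note: plate controls were DMSO wells for no effect and camptothecin positive control wells for full effect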
Conditions: PC3M PTB-GFP, PNC prevalence imaging, 16 h; at 10 µM; hits give low values
Outline: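 Read-out is percentage of cells bearing a perinucleolar compartment, from automated 20x imaging of fixed, Hoechst-stained PC3M PTB-GFP cells. Cells were seeded 4 h, then exposed 16 h to compound (23 nl of library stock) in duplicate plates.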

| Structure (SMILES) | activity change (PNC), negative = inhibition |
| --- | --- |
| NC1=NC(=O)/C(=C/c2c(OS(=O)(=O)c3ccc(Cl)cc3)ccc3ccccc23)S1 | inconclusive: -51.8% |
| O=C(NC(=S)Nc1ccc(CN2CCOCC2)cc1)c1ccc([N+](=O)[O-])cc1 | inconclusive: -37.8% |
| COc1ccc(OC)c(S(=O)(=O)n2nnc3ccccc32)c1 | inconclusive: -33.2% |
| Cc1cccc(CSCCNC(=O)Nc2ccccc2)c1 | inconclusive: -32.8% |
| COc1ccc(/C=C/C(=O)CC(O)(c2ccccc2)C(F)(F)F)cc1 (configuration not stated) | active: -100% |
| COc1ccc(/C=N/NC(=O)CSc2nnc(C)n2-c2ccccc2)c(OC)c1OC | inconclusive: -40% |
| O=C(c1cc2ccccc2oc1=O)N1CCN(Cc2ccc3c(c2)OCO3)CC1 | inconclusive: -41.5% |
| Clc1cccc(Cl)c1/C=N\Nc1nccs1 | inconclusive: -51.5% |
| COc1nc(-c2ccccc2)ccc1-c1noc(-c2ccccc2F)n1 | inactive: -4.11% |
| COc1cccc(-n2nnc3c(=O)n(Cc4cccc(C)c4)cnc32)c1 | inconclusive: -55.2% |
| CC(=O)c1cccc(N(CC(=O)N2CCOCC2)S(C)(=O)=O)c1 | inactive: 20.9% |
| CC1CN(C(=O)c2cccc(S(=O)(=O)N3CCOCC3)c2)CC(C)O1 (configuration not stated) | inconclusive: -60.4% |
| COc1ccc(NC(=O)CC2C(=O)N(c3ccccc3)C(=O)N2CCc2cccs2)cc1 (configuration not stated) | inconclusive: -40.1% |
| CC1CN(C(=O)C(c2ccccc2)c2ccccc2)CC(C)O1 (configuration not stated) | inconclusive: -56.4% |
| COc1ccc(C(C)(C)C)cc1S(=O)(=O)N1CCN(C)CC1 | inconclusive: -71% |
| CN1C(=O)NC(c2cccc(O)c2)C(C(=O)c2cccs2)C1(O)C(F)(F)F (configuration not stated) | inactive: 1.98% |
| Fc1cnc(N2CCN(c3ccccc3)CC2)nc1N1CCN(c2ccccc2)CC1 | inconclusive: -56.8% |
| Cc1csc2nc(CSc3nncn3-c3ccccc3)c(Br)n12 | inactive: -12.9% |
| O=C1CC(c2c(F)cccc2Cl)C2=C(COC2=O)N1 (configuration not stated) | inconclusive: -32.9% |
| COc1cccc(NCc2cc3c(C(C)(C)C)nn(-c4ccccc4)c3[nH]c2=O)c1 | inactive: 34.7% |
| NC(=O)CSc1nnc(-c2ccc(S(=O)(=O)N3CCCC3)cc2)o1 | inconclusive: -49.8% |
| C=CCn1c(SC)nc2sc3c(c2c1=O)CCc1ccccc1-3 | inconclusive: -76% |
| O=C1c2ccccc2C(=O)c2cc(NC(=O)C3CC3)ccc21 | inconclusive: -36.4% |
| CCOC(=O)c1c(NC(=O)CS(=O)(=O)c2cn(CC)c3ccccc23)sc2c1CCCCC2 | inactive: 51.3% |

Taken from above:
Entry for `CC(=O)c1cccc(N(CC(=O)N2CCOCC2)S(C)(=O)=O)c1` under activity change (PNC), negative = inhibition: inactive: 20.9%
Entry for `CC1CN(C(=O)c2cccc(S(=O)(=O)N3CCOCC3)c2)CC(C)O1` (configuration not stated) under activity change (PNC), negative = inhibition: inconclusive: -60.4%
Entry for `COc1ccc(NC(=O)CC2C(=O)N(c3ccccc3)C(=O)N2CCc2cccs2)cc1` (configuration not stated) under activity change (PNC), negative = inhibition: inconclusive: -40.1%
Entry for `C=CCn1c(SC)nc2sc3c(c2c1=O)CCc1ccccc1-3` under activity change (PNC), negative = inhibition: inconclusive: -76%

Additional results.

| Structure (SMILES) | activity change (PNC), negative = inhibition |
| --- | --- |
| Nc1nc(NC(=O)Cc2ccccc2)nn1-c1ccccc1 | inactive: 9.01% |
| COc1ccc2nc3oc(C(=O)Nc4ccc(OC)c(OC)c4)cc3cc2c1 | inconclusive: -30.7% |
| c1ccc2c(c1)[nH]c1nc(SCCN3CCOCC3)nnc12 | inactive: -26.4% |
| Cc1nc2cc(NC(=O)N3c4ccccc4CC3C)ccc2n1C (configuration not stated) | inconclusive: -42.9% |
| Cc1cccc(C)c1NC(=O)N1CCN(C2CCCCC2)CC1 | inactive: 27.7% |
| CC(CCC(=O)Nc1nncs1)C(=O)O (configuration not stated) | inconclusive: -33% |
| C[C@@H]1C[C@H](Nc2ccccc2)c2ccccc2N1C(=O)c1cccnc1 | inconclusive: -35.3% |
| Oc1ccc(Cl)cc1C=Nc1ccc2c3c(cccc13)CC2 | inconclusive: -38.4% |
| O=C(N/N=C/c1ccc(Br)o1)c1ccc2c(c1)OCCO2 | inactive: -13.3% |
| COCCn1c(SCC(=O)/C=C2\N(C)c3ccccc3C2(C)C)nnc1-c1ccncc1 | inconclusive: -41.5% |
| CC1CCCCN1S(=O)(=O)c1ccc(S(=O)(=O)N2CCN(c3ccc(F)cc3)CC2)cc1 (configuration not stated) | active: -114% |
| Cc1ccc2c(c1)c1c(n2C)C(C(N)=O)CCC1 (configuration not stated) | inconclusive: -44.1% |
| O=C(O)c1cccnc1NC1CCCC1 | inconclusive: -49.4% |
| CN1C(=O)CC(Sc2ccccc2C(=O)O)C1=O (configuration not stated) | inactive: -29.9% |
| CCOCCCN(Cc1cc2cc(C)cc(C)c2[nH]c1=O)C(=O)N(CC)CC | inconclusive: -39.7% |
| Nc1cnn(C2CCCO2)c(=O)n1 (configuration not stated) | inconclusive: -44% |
| CN(C(=O)Cc1ccccc1)n1cnnc1 | inconclusive: -56.2% |
| COc1ccc(N2C(=O)CSC2c2cccc(OC)c2OC)cc1 (configuration not stated) | inactive: 21% |
| O=C(CSc1nnc(-c2cccnc2)n1C1CCCCC1)NC1CCCC1 | inactive: -16.4% |
| CCc1cc2c(=O)[nH]c(Cc3ccccc3)nc2s1 | active: -108% |
| CCCN(CCC)c1nc(C)cc(C(C#N)c2nc3ccccc3o2)n1 (configuration not stated) | inconclusive: -55% |
| Cc1nc2nc(COc3ccccc3)[nH]n2c(=O)c1Cc1ccccc1 | inconclusive: -42.5% |
| O=C(CCS(=O)(=O)Cc1ccccc1F)NCCCN1CCCCC1 | inconclusive: -46.2% |
